Data published in article PMC9633696.
These are yes or no findings as the source states them, for the method shown. Some results given as binding are weak or reduced against the parent protein; the word gives no strength.

By UniProt entry, the sequences of proteins in these tests, tags left out. Residues count along the entry.
UniProt Q07954, residues 20-4544: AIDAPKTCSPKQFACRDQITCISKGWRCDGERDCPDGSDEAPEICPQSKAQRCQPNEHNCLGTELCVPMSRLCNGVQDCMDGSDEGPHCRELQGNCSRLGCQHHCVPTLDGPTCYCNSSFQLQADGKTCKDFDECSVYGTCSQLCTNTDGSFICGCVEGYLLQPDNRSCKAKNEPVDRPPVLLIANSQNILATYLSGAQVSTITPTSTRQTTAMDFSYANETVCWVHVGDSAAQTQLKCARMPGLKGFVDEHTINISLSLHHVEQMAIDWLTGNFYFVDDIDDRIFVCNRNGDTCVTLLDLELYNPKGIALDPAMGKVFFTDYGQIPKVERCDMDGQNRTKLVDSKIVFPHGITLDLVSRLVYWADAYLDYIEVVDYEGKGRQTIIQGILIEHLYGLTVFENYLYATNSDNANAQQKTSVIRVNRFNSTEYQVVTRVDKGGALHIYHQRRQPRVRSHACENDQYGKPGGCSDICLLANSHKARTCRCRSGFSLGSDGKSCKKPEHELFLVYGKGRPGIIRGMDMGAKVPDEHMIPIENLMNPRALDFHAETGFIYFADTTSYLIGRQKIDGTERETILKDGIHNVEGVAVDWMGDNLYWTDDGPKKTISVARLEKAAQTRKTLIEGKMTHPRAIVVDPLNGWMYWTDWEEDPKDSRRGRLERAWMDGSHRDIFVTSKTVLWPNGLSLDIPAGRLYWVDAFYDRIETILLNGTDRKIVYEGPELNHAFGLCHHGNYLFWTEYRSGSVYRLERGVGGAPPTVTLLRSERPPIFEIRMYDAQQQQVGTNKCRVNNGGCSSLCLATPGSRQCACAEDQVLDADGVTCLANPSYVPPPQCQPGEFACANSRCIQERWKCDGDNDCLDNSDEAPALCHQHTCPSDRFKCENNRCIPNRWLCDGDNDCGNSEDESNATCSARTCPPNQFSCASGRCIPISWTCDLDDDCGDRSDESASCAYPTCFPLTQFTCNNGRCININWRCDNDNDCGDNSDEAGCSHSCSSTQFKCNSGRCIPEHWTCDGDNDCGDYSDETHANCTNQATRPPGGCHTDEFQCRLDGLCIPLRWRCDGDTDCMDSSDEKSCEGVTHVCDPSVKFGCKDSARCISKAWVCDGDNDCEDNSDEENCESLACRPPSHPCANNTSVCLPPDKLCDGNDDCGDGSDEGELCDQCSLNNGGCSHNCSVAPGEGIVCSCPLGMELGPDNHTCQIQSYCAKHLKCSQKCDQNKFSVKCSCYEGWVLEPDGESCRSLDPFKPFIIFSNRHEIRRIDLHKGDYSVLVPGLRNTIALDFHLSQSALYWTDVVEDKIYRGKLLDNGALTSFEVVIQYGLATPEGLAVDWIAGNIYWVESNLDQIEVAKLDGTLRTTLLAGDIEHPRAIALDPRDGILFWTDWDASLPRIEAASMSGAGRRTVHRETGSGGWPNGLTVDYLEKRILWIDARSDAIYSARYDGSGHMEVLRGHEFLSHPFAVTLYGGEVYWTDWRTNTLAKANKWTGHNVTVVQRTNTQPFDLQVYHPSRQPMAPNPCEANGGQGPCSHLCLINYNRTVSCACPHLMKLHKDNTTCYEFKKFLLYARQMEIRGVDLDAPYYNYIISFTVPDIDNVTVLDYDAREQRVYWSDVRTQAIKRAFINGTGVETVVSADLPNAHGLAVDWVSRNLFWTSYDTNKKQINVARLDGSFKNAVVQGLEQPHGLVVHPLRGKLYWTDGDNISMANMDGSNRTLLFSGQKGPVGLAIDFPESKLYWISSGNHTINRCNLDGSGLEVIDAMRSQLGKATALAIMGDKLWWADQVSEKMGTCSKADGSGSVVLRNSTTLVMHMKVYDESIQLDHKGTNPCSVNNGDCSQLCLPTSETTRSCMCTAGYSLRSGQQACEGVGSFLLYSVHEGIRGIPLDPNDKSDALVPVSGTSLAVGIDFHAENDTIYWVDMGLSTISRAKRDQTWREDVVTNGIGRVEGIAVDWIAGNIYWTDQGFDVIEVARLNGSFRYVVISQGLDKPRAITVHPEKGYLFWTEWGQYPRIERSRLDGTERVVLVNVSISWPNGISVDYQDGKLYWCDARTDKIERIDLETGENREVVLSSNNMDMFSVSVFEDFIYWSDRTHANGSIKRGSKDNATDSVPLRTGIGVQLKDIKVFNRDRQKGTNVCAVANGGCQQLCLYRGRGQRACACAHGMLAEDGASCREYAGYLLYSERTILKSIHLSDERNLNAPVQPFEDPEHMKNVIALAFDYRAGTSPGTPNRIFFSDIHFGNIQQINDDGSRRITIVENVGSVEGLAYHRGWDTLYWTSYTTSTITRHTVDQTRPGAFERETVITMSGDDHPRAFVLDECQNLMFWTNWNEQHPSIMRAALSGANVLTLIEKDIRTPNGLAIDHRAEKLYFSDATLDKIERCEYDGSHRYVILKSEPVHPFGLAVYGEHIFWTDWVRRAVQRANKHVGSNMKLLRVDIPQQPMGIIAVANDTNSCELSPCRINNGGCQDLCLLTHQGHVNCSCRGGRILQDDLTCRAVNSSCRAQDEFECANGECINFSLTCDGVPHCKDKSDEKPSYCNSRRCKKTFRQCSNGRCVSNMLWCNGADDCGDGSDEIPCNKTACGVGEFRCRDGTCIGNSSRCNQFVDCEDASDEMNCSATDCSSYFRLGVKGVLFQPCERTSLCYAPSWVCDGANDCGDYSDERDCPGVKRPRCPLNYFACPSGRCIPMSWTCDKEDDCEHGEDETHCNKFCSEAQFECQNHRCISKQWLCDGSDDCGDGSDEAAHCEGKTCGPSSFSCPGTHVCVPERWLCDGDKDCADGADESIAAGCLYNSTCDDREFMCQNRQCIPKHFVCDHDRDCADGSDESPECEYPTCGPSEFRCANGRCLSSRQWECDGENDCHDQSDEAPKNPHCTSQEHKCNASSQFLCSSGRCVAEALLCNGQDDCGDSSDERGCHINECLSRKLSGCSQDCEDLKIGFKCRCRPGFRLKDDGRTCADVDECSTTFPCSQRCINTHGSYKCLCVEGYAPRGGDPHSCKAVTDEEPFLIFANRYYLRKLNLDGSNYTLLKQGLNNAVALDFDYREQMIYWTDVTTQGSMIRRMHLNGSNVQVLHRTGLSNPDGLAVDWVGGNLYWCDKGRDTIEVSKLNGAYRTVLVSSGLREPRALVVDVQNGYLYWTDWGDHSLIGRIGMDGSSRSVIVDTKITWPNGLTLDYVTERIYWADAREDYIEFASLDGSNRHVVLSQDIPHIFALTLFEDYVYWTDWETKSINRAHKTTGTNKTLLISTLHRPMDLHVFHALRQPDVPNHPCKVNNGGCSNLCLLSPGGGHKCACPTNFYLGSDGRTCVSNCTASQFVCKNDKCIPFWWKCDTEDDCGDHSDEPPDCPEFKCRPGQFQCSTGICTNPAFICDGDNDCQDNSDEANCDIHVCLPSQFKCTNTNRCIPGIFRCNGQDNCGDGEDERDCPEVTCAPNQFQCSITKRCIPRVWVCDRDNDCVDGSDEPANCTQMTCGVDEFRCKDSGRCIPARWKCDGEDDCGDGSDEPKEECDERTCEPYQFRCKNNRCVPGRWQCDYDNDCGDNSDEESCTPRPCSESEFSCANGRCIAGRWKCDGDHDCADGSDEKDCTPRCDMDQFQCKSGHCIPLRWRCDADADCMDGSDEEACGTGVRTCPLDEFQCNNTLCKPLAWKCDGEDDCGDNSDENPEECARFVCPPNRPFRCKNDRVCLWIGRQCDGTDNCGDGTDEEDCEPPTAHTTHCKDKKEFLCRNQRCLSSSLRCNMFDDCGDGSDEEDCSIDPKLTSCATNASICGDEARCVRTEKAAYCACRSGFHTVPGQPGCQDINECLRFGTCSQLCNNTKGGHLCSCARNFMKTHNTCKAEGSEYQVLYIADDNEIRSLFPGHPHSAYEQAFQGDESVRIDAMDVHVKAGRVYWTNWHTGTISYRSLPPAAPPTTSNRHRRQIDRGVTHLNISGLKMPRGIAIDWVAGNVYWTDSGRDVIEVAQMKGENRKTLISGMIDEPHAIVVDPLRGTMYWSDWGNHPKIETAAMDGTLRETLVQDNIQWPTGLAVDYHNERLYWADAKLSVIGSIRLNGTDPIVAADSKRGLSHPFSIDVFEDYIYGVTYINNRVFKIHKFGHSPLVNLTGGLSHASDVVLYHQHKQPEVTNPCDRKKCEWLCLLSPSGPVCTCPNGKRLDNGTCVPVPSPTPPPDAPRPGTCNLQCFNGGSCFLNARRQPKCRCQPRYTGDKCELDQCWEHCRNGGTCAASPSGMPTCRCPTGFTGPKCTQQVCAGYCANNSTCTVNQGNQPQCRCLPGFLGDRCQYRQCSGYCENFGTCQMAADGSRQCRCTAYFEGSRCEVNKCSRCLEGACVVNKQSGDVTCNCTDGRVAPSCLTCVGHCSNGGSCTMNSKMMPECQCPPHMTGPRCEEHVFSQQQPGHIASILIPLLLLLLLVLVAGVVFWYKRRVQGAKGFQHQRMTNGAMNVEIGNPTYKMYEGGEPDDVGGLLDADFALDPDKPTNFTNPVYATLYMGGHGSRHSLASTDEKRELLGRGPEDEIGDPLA
UniProt P04275, residues 764-2813: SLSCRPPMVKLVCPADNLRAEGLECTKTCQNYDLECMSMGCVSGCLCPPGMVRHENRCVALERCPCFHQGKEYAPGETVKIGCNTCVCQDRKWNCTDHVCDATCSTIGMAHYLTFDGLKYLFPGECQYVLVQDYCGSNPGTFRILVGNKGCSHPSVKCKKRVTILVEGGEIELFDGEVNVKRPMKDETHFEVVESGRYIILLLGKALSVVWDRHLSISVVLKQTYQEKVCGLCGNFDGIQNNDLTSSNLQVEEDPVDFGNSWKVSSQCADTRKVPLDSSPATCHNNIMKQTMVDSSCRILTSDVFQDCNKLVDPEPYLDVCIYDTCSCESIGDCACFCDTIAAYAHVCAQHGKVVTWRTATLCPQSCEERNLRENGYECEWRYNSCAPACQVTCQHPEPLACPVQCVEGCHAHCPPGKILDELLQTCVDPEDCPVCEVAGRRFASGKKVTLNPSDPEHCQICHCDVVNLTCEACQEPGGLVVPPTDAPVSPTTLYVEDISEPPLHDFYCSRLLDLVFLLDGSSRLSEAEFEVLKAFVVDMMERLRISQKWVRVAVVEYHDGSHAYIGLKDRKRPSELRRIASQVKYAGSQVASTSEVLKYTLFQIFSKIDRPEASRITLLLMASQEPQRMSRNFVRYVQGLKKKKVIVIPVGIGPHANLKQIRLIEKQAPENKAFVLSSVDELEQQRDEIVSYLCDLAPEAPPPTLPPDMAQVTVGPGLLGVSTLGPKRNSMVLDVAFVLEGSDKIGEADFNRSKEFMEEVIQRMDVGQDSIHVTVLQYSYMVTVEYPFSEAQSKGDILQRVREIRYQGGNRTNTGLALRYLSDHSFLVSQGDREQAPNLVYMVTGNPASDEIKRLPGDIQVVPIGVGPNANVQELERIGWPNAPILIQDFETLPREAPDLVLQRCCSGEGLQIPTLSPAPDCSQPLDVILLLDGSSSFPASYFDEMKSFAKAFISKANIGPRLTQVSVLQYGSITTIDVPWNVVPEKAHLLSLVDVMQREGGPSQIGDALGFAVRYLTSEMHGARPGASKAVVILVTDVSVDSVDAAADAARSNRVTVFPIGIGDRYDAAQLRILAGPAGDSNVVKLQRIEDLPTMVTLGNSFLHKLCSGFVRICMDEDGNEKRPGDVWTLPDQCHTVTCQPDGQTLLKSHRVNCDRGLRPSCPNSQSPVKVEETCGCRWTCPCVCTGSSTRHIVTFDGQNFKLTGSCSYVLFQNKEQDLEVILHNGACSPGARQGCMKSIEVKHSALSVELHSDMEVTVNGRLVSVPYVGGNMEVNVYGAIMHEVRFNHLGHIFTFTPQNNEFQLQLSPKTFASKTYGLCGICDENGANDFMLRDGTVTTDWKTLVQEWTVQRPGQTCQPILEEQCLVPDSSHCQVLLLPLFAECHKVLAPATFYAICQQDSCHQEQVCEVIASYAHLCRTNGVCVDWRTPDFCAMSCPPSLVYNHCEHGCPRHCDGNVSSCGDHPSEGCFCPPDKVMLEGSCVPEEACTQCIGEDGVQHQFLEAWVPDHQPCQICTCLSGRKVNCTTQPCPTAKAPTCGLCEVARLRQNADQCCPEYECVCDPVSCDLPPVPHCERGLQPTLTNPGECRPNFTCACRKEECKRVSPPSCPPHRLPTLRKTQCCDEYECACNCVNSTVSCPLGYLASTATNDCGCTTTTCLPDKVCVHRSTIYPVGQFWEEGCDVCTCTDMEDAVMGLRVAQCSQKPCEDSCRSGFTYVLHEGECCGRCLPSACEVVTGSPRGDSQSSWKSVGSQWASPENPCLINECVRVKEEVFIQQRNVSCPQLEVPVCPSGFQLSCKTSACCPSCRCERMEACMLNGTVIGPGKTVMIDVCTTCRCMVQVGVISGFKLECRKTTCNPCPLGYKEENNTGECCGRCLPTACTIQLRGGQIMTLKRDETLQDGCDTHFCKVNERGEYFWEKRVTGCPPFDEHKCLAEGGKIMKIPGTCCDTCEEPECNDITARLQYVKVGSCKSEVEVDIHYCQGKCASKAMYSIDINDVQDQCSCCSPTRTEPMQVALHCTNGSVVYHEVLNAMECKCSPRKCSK

Molecular target: LRP1 on primary human macrophages (human (endogenous in primary human macrophages)) (UniProt Q07954)
Test: flow cytometry on cells; pd-VWF incubated with primary human monocyte-derived macrophages in RPMI + 1 mM CaCl2 for 30 min, Fc receptors blocked; with or without LRP1 blocking antibody; bound VWF detected with polyclonal rabbit anti-human VWF and anti-rabbit Alexa-488; only the binder purified

Substance: Human plasma-derived von Willebrand factor-Factor VIII free (from UniProt P04275 764-2813)
- binding: binds
